According to patent US6916624 (Genentech, dated 2005):
No constants are given. Whether binding was seen depends on the method and setting. Some binding calls cover weakened binding; strength is not graded here. Where a sequence is shown, tags or fusion partners need not be part of it.

Sequences of proteins named here, by UniProt entry; tags and fusion partners are left off. A change or cut given only in a name is not applied to a line headed by its entry.
UniProt Q15303: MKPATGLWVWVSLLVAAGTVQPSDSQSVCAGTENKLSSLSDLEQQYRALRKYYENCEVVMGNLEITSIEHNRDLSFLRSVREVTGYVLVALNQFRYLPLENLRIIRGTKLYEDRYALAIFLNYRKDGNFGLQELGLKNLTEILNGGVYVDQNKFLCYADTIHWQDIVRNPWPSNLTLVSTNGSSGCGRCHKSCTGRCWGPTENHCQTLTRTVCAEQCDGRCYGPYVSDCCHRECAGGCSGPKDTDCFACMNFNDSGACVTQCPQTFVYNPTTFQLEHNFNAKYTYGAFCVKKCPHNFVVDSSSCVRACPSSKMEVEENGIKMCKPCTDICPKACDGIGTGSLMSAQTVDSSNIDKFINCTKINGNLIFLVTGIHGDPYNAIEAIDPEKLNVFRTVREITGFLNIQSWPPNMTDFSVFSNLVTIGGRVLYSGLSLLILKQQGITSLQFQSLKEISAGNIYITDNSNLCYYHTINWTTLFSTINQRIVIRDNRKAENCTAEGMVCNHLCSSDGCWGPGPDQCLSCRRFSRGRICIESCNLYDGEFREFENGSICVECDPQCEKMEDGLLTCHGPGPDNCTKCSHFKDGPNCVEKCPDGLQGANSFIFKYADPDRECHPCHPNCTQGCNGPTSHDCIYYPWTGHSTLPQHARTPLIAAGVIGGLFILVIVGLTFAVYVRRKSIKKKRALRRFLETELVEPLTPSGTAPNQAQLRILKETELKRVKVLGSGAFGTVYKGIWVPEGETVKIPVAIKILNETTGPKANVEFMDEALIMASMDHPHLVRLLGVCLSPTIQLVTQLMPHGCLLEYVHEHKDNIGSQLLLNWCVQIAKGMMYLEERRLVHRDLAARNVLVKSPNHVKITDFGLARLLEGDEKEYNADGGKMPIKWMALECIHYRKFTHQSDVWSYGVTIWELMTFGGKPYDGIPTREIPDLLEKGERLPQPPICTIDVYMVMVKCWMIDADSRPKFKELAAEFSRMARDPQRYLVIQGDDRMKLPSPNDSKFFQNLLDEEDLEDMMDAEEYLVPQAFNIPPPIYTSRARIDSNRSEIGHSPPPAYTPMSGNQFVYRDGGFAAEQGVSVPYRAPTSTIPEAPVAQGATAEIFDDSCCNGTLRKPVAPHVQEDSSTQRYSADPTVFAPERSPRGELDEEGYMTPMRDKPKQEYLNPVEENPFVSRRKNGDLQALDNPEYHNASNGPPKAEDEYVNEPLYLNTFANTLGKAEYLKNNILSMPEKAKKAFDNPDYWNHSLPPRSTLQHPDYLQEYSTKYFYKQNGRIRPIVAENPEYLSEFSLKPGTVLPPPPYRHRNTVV

Columns and labels:
[1] = target: ErbB3-immunoadhesin (ErbB3-IgG fusion, L636 ErbB3-(TR)-DKTH224 VH) (human) (UniProt P21860+P01857); experiment: competitive displacement of ^125I-HRGβ1(177-244) from immobilised ErbB3-IgG
[2] = target: ErbB4-immunoadhesin (ErbB4-IgG fusion, G640 ErbB4-(TR)-DKTH224 VH) (human) (UniProt Q15303+P01857); experiment: competitive displacement of ^125I-HRGβ1(177-244) from immobilised ErbB4-IgG

B1: trxγ-HRG (amino acids 455-768), N-terminal truncated γ-HRG thioredoxin fusion protein (ligand)
chain: QVFIDHPVHLKFNVSLGKAALVGIYGRKGLPPSHTQFDFVELLDGRRLLTQEARSLEGTPRQSRGTVPPSSHETGFIQYLDSGIWHLAFYNDGKESEVVSFLTTAIALPPRLKEMKSQESAAGSKLVLRCETSSEYSSLRFKWFKNGNELNRKNKPQNIKIQKKPGKSELRINKASLADSGEYMCKVISKLGNDSASANITIVESNEIITGMPASTEGAYVSSESPIRISVSTEGANTSSSTSTSTTGTSHLVKCAEKEKTFCVNGGECFMVKDLSNPSRYLCKCPNEFTGDRCQNYVMASFYSTSTPFLSLPE
notes: The results text calls it simply γ-HRG; also called recombinant γ-HRG; bacterial expressed truncated γ-HRG; not shown: N-terminal thioredoxin encoded by the pET-32a TRX fusion vector (Novagen); vector-encoded residues of pET32a between thioredoxin and the BamHI insertion site are not described
In the case of B1, the binding [1] is reported as “binds” and the binding [2] is reported as “binds”.
